The other results are listed elsewhere or left out.
What was measured:
Test in all cases: log2 fold change, soluble protein after heating vs DMSO (PISA); higher = thermal stabilisation; K562 lysate, 10 uM; active = over 0.2 and 3.5 SD of the protein, either way, in both replicates (recomputed)
[1] = compound: CS(=O)(=O)CCNCc1ccc(-c2ccc3ncnc(Nc4ccc(OCc5cccc(F)c5)c(Cl)c4)c3c2)o1 [lapatinib]
In short: (§1)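 Log-two fold change in thermal stability relative to solvent controls is reported from duplicates. For each sample, crude K562 extract from dounce-homogenised pellets in PBS pH 7.4 with 1 mM MgCl2, at 1 mg/mL protein, was treated with 10 μM compound for 30 min. Aliquots heated for 3 min across 48°C-58°C were pooled, brought to 0.5% NP-40 at 4°C and cleared at 21,000xg for 90 min. The supernatant was quantified by TMTpro 16plex LC-MS/MS with channel sums equalised.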

Sequences of proteins named here, by UniProt entry; tags and fusion partners are left off. A change or cut given only in a name is not applied to a line headed by its entry.
UniProt O75531: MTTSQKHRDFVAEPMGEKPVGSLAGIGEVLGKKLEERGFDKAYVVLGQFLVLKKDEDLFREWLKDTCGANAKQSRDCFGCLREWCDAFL
UniProt Q53S33: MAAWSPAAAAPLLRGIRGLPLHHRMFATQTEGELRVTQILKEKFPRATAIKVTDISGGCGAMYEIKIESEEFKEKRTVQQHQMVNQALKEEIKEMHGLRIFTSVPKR
UniProt Q7Z569: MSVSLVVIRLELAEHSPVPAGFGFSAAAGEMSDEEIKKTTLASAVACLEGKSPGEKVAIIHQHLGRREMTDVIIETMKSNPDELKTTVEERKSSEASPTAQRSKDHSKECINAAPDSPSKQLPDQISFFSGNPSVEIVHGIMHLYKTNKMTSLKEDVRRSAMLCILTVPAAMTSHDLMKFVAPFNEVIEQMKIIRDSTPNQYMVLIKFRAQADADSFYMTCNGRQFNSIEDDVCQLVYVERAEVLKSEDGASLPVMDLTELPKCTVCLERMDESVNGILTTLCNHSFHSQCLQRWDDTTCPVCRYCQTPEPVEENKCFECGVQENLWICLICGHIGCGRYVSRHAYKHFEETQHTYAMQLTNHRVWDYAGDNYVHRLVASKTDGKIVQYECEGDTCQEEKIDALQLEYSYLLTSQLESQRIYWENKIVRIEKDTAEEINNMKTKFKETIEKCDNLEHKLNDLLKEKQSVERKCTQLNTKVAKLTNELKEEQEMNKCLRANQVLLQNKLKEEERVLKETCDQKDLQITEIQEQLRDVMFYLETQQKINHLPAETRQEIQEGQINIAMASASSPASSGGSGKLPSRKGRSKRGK
UniProt P53004: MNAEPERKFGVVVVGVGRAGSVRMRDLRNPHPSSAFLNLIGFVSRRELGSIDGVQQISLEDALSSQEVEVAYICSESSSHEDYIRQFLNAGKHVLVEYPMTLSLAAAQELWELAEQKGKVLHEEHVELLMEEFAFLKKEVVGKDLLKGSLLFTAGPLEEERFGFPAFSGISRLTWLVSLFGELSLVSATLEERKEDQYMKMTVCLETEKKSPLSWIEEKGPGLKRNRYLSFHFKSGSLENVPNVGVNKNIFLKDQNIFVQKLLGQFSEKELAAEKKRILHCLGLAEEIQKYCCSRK
UniProt Q12981: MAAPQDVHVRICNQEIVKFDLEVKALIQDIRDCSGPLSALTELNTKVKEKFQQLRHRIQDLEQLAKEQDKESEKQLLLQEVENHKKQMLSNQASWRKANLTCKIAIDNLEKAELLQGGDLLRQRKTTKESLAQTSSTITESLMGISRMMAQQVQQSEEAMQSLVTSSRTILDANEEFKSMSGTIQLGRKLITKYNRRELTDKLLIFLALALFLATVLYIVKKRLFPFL
UniProt Q07812, whole entry, looked up: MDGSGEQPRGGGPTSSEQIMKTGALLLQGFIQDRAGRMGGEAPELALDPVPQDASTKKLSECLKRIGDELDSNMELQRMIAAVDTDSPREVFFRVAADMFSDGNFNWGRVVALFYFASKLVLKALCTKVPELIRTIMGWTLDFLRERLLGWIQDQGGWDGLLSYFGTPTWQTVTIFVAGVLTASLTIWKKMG
UniProt O95817, whole entry, looked up: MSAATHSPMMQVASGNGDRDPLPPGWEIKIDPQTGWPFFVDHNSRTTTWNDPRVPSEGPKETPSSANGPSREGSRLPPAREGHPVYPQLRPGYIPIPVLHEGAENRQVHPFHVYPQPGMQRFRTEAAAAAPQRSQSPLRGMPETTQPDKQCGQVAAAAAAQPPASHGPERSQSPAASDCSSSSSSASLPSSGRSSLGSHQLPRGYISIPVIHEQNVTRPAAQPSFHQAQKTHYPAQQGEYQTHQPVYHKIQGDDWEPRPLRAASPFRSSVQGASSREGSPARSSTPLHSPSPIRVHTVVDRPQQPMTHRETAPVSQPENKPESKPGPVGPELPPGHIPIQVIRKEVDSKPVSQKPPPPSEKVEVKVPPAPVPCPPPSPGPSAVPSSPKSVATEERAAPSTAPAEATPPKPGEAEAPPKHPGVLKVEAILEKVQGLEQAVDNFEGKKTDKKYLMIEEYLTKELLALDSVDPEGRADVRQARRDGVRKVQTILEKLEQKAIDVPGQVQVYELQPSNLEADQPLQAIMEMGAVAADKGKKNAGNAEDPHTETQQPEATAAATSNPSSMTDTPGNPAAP
UniProt Q9P287, whole entry, looked up: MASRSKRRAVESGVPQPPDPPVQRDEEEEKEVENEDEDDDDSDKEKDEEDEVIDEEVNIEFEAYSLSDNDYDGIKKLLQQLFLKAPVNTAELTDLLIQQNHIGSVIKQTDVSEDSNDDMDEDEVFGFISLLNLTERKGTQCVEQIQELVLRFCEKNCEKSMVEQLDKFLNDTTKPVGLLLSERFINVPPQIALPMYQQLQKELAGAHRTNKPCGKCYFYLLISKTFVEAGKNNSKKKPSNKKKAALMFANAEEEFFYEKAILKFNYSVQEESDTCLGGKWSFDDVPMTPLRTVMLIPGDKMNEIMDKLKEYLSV
UniProt Q9HB09: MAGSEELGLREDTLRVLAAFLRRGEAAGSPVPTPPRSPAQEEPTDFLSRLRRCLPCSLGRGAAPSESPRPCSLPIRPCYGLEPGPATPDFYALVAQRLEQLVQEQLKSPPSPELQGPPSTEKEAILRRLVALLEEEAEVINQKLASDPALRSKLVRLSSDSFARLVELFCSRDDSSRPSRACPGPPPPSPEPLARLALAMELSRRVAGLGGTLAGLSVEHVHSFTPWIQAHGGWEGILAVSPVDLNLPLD
UniProt Q92560: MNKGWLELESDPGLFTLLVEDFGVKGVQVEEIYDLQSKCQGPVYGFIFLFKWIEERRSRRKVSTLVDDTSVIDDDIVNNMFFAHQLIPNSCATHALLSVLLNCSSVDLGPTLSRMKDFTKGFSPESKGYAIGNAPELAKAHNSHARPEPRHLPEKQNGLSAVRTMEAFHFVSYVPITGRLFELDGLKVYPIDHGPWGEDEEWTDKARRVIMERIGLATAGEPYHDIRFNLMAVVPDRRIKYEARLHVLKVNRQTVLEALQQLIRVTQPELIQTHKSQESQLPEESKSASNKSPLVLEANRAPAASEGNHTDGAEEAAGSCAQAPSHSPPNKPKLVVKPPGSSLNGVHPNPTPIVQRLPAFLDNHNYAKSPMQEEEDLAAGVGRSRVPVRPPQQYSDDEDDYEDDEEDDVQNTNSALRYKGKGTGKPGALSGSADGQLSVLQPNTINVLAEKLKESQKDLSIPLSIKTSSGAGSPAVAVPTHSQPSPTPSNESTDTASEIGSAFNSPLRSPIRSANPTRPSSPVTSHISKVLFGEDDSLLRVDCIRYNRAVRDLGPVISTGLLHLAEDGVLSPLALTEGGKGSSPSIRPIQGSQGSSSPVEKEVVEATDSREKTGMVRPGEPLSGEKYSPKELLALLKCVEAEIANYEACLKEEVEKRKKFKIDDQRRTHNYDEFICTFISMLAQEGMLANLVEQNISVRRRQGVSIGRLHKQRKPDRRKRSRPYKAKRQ
UniProt Q9H0E9, whole entry, looked up: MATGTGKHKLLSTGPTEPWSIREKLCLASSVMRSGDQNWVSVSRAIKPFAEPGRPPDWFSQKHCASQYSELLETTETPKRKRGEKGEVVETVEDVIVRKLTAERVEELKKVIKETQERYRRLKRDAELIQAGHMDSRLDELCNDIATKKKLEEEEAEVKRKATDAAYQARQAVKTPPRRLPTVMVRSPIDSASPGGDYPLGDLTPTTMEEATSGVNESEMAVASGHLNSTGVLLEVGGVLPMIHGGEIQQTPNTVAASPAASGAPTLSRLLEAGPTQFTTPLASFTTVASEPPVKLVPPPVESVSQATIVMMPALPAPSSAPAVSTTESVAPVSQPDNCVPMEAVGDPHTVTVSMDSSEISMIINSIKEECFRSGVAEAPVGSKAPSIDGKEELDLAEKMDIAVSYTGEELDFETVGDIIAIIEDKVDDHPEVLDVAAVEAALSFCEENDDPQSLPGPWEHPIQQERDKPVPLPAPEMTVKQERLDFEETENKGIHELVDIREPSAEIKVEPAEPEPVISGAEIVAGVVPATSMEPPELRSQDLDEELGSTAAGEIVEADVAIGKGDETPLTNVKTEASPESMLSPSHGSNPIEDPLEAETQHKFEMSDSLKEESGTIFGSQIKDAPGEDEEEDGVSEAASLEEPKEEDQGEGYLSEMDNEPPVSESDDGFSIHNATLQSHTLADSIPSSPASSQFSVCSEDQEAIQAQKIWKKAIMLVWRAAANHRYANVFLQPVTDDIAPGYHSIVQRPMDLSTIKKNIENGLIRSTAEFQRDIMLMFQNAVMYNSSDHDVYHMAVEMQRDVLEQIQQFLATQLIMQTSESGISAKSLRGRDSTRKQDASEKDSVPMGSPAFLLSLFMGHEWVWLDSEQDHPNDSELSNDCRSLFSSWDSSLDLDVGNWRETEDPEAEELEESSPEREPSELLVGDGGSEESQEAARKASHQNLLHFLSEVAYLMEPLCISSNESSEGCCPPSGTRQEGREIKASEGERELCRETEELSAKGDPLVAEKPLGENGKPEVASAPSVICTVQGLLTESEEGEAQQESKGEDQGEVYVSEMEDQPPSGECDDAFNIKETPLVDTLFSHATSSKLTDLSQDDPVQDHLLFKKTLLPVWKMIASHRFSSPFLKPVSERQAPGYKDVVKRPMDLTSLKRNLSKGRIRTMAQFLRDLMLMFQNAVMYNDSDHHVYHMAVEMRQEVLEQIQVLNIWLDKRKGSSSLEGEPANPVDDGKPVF
UniProt Q9NUP1: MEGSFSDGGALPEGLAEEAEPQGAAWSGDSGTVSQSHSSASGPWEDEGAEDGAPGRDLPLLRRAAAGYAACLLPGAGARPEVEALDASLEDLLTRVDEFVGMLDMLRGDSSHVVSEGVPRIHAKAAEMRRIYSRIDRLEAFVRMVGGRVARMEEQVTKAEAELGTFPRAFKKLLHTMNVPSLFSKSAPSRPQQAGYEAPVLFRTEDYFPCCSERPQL
UniProt O15155: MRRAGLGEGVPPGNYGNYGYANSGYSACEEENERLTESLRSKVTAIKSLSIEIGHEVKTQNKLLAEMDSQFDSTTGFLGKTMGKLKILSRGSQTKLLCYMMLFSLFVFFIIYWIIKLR
UniProt Q96G01: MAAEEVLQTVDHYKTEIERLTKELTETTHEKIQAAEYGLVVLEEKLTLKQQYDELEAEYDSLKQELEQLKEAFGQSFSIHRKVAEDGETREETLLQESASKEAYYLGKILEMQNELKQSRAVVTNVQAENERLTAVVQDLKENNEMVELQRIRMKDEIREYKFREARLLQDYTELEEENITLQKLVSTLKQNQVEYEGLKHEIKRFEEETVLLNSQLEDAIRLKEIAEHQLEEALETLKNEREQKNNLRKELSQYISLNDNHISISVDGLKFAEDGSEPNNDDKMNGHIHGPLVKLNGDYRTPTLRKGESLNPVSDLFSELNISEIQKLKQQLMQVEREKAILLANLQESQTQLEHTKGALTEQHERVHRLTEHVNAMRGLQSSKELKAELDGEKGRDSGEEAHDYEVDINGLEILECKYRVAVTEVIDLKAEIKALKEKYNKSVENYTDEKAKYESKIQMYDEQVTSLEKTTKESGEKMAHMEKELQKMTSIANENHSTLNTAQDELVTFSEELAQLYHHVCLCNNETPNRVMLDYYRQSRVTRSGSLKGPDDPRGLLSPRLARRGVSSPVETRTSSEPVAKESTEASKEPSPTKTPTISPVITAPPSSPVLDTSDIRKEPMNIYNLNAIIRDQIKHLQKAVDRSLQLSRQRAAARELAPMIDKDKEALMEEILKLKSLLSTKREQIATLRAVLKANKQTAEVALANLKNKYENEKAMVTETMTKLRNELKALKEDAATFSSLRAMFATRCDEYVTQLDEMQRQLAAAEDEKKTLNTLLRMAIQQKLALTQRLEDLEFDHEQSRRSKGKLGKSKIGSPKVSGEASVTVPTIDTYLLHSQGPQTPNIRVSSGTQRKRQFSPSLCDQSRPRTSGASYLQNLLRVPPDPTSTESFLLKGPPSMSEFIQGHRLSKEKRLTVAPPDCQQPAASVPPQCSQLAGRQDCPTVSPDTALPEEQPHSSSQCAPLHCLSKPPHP
UniProt O95816: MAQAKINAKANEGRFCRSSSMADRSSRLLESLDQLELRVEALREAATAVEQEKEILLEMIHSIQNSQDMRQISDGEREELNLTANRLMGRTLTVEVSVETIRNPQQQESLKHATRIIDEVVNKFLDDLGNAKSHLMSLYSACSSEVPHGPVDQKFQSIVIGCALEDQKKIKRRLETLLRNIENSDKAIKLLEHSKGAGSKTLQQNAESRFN

[2] = compound: CS(=O)(=O)N1CCN(Cc2cc3nc(-c4cccc5[nH]ncc45)nc(N4CCOCC4)c3s2)CC1 [pictilisib]
In short: as §1

[3] = compound: C[C@@H](Oc1cc(-c2cnn(C3CCNCC3)c2)cnc1N)c1c(Cl)ccc(F)c1Cl [crizotinib]
In short: as §1

[4] = compound: C[C@H](C1=CC=C(C=C1)C(=O)NC2=C3C=CNC3=NC=C2)N
In short: as §1

[5] = compound: C[C@H](Nc1ncnc2nc[nH]c12)c1cc2cccc(Cl)c2c(=O)n1-c1ccccc1 [duvelisib]
In short: as §1

[6] = compound: Cc1cc(Nc2cc(CN3CCOCC3)c3nc(C)c(Cc4ccc(Cl)cc4F)n3n2)n[nH]1 [gandotinib]
In short: as §1

[7] = compound: Cc1cc(Nc2cc(N3CCN(C)CC3)nc(Sc3ccc(NC(=O)C4CC4)cc3)n2)n[nH]1 [tozasertib]
In short: as §1

[8] = compound: Cc1ccc(-n2nc(C(C)(C)C)cc2NC(=O)Nc2ccc(OCCN3CCOCC3)c3ccccc23)cc1 [doramapimod]
In short: as §1

[9] = compound: Cc1ccc(NC(=O)c2ccc(CN3CC[C@H](N(C)C)C3)c(C(F)(F)F)c2)cc1Nc1nccc(-c2cncnc2)n1 [bafetinib]
In short: as §1

[10] = compound: Cc1cccc(CC(=O)N2CCc3c2ccc(-c2cn(C)c4ncnc(N)c24)c3F)n1
In short: as §1

[11] = compound: Cc1cn(-c2cc(NC(=O)c3ccc(C)c(Nc4nccc(-c5cccnc5)n4)c3)cc(C(F)(F)F)c2)cn1 [nilotinib]
In short: as §1

[12] = compound: Cc1nc(Nc2n[nH]c3c2CN(C(=O)N[C@H](CN(C)C)c2ccccc2)C3(C)C)c2sccc2n1
In short: as §1

[13] = compound: Cc1nc(Nc2ncc(C(=O)Nc3c(C)cccc3Cl)s2)cc(N2CCN(CCO)CC2)n1 [dasatinib]
In short: as §1

[14] = compound: Cc1ncc(-c2ccnc(Nc3ccc(S(C)(=O)=O)cc3)n2)n1C(C)C
In short: as §1

[15] = compound: Cn1cc(-c2ccc3c(c2)CCN3C(=O)Cc2cccc(C(F)(F)F)c2)c2c(N)ncnc21
In short: as §1

[16] = compound: Cn1cc(CNCC2CCN(c3ncc(C(=O)NO)cn3)CC2)c2ccccc21 [quisinostat]
In short: as §1

[17] = compound: Cn1cncc1[C@@](N)(c1ccc(Cl)cc1)c1ccc2c(c1)c(-c1cccc(Cl)c1)cc(=O)n2C [tipifarnib]
In short: as §1

[18] = compound: NC(=O)Nc1cc(-c2cccc(F)c2)sc1C(=O)N[C@H]1CCCNC1
In short: as §1

[19] = compound: NC(=O)c1cnc(N[C@@H]2CCCC[C@@H]2N)nc1Nc1cccc(-n2nccn2)c1
In short: as §1

[20] = compound: NC1(c2ccc(-c3nc4ccn5c(=O)[nH]nc5c4cc3-c3ccccc3)cc2)CCC1
In short: as §1

Measured: log2 fold change

BANF1 (UniProt O75531)
inactive: [1] 0.037 | [2] 0.024 | [3] 0.023 | [4] -0.14 | [5] 0.014 | [6] 0.046 | [7] -0.05 | [8] -0.053 | [9] 0.023 | [10] 0.078 | [11] 0.053 | [12] -0.088 | [13] -0.004 | [14] 0.043 | [15] -0.031 | [16] -0.013 | [17] -0.007 | [18] -0.04 | [19] 0.018 | [20] -0.016

BOLA3 (UniProt Q53S33)
inactive: [1] -0.004 | [2] 0.005 | [3] 0.057 | [4] -0.156 | [5] 0 | [6] 0.041 | [7] 0.052 | [8] -0.023 | [9] -0.005 | [10] -0.001 | [11] 0.031 | [12] 0.056 | [13] 0.021 | [14] 0.007 | [15] 0.015 | [16] 0.085 | [17] -0.017 | [18] 0.019 | [19] -0.028 | [20] 0.032

BRAP (UniProt Q7Z569)
inactive: [1] -0.008 | [2] 0.001 | [3] 0.007 | [4] -0.032 | [5] -0.044 | [6] 0.035 | [7] -0.014 | [8] 0.023 | [9] -0.011 | [10] 0.041 | [11] -0.008 | [12] 0 | [13] 0.005 | [14] 0.04 | [15] 0.015 | [16] -0.035 | [17] -0.022 | [18] 0.023 | [19] -0.017 | [20] 0.01

Pulled one by one from above (two):
BRAP (UniProt Q7Z569)
inactive: [1] -0.008 | [2] 0.001 | [3] 0.007 | [4] -0.032 | [5] -0.044 | [6] 0.035 | [7] -0.014 | [8] 0.023 | [9] -0.011 | [10] 0.041 | [11] -0.008 | [12] 0 | [13] 0.005 | [14] 0.04 | [15] 0.015 | [16] -0.035 | [17] -0.022 | [18] 0.023 | [19] -0.017 | [20] 0.01

BANF1 (UniProt O75531)
inactive: [1] 0.037 | [2] 0.024 | [3] 0.023 | [4] -0.14 | [5] 0.014 | [6] 0.046 | [7] -0.05 | [8] -0.053 | [9] 0.023 | [10] 0.078 | [11] 0.053 | [12] -0.088 | [13] -0.004 | [14] 0.043 | [15] -0.031 | [16] -0.013 | [17] -0.007 | [18] -0.04 | [19] 0.018 | [20] -0.016

The results go on.

BLVRA (UniProt P53004)
inactive: [1] -0.02 | [2] -0.018 | [3] -0.007 | [4] 0.021 | [5] 0.022 | [6] -0.055 | [7] -0.024 | [8] -0.018 | [9] -0.034 | [10] -0.017 | [11] 0.029 | [12] -0.024 | [13] -0.047 | [14] 0.011 | [15] 0.004 | [16] 0.001 | [17] 0.018 | [18] 0 | [19] -0.004 | [20] -0.005

BNIP1 (UniProt Q12981)
inactive: [1] -0.007 | [2] 0.018 | [3] -0.062 | [4] 0.273 | [5] -0.059 | [6] -0.15 | [7] 0.017 | [8] 0.071 | [9] -0.019 | [10] -0.17 | [11] -0.004 | [12] -0.037 | [13] -0.005 | [14] -0.028 | [15] -0.045 | [16] -0.014 | [17] -0.046 | [18] -0.034 | [19] -0.033 | [20] 0.057

BAX isoform 2 (UniProt Q07812)
inactive: [1] 0.03 | [2] -0.012 | [3] -0.054 | [4] 0.018 | [5] 0.007 | [6] -0.008 | [7] -0.009 | [8] 0.031 | [9] -0.009 | [10] -0.026 | [11] -0.065 | [12] -0.03 | [13] 0.012 | [14] 0.034 | [15] 0.01 | [16] -0.014 | [17] 0.013 | [18] 0.003 | [19] -0.018 | [20] -0.005

BAG3 (UniProt O95817)
inactive: [1] -0.014 | [2] -0.006 | [3] 0.047 | [4] 0.071 | [5] 0.009 | [6] -0.004 | [7] 0.019 | [8] -0.018 | [9] 0.017 | [10] -0.076 | [11] -0.013 | [12] 0.013 | [13] 0.021 | [14] -0.011 | [15] -0.01 | [16] 0.019 | [17] 0.003 | [18] -0.004 | [19] -0.022 | [20] 0.06

BCCIP isoform 2 (UniProt Q9P287)
inactive: [1] 0.031 | [2] -0.016 | [3] 0.025 | [4] 0.083 | [5] 0.023 | [6] -0.066 | [7] 0.042 | [8] 0.013 | [9] -0.025 | [10] -0.077 | [11] -0.024 | [12] 0.012 | [13] 0.014 | [14] 0.013 | [15] 0.02 | [16] 0.018 | [17] -0.011 | [18] -0.01 | [19] -0.016 | [20] 0.055

BCL2L12 (UniProt Q9HB09)
inactive: [1] 0.164 | [2] -0.184 | [3] 0.01 | [4] 0.045 | [5] 0.009 | [6] -0.003 | [7] -0.056 | [8] -0.016 | [9] -0.296 | [10] 0.057 | [11] -0.12 | [12] -0.007 | [13] -0.129 | [14] -0.004 | [15] 0.046 | [16] 0.022 | [17] 0.075 | [18] -0.041 | [19] 0.121 | [20] 0.013

BAP1 (UniProt Q92560)
inactive: [1] -0.036 | [2] -0.155 | [3] 0.045 | [4] -0.066 | [5] 0.037 | [6] 0.029 | [7] -0.025 | [8] -0.069 | [9] -0.081 | [10] -0.018 | [11] 0.034 | [12] -0.026 | [13] -0.014 | [14] -0.025 | [15] 0.024 | [16] 0.033 | [17] -0.046 | [18] 0.107 | [19] 0.021 | [20] -0.007

BRD8 isoform 2 (UniProt Q9H0E9)
inactive: [1] 0.032 | [2] 0 | [3] -0.016 | [4] 0.01 | [5] 0.031 | [6] 0.019 | [7] -0.022 | [8] 0.037 | [9] -0.039 | [10] 0.013 | [11] -0.035 | [12] -0.025 | [13] 0.03 | [14] 0.025 | [15] 0.035 | [16] -0.091 | [17] 0.015 | [18] 0 | [19] 0.009 | [20] 0.005

BLOC1S4 (UniProt Q9NUP1)
inactive: [1] -0.001 | [2] -0.093 | [3] 0.022 | [4] 0.026 | [5] -0.077 | [6] -0.03 | [7] -0.017 | [8] -0.021 | [9] 0.036 | [10] -0.05 | [11] -0.005 | [12] -0.026 | [13] -0.041 | [14] -0.002 | [15] -0.07 | [16] -0.033 | [17] 0.01 | [18] 0.028 | [19] -0.016 | [20] -0.019

BET1 (UniProt O15155)
inactive: [1] -0.051 | [2] -0.034 | [3] -0.004 | [4] -0.004 | [5] 0.01 | [6] -0.006 | [7] 0 | [8] 0.03 | [9] -0.056 | [10] 0.03 | [11] 0.038 | [12] 0.052 | [13] -0.015 | [14] -0.011 | [15] 0 | [16] 0.023 | [17] -0.063 | [18] -0.005 | [19] -0.057 | [20] -0.005

BICD1 (UniProt Q96G01)
inactive: [1] -0.016 | [2] 0.061 | [3] 0.04 | [4] -0.034 | [5] 0.028 | [6] 0.01 | [7] 0.056 | [8] -0.001 | [9] -0.041 | [10] 0.006 | [11] 0.008 | [12] -0.047 | [13] -0.02 | [14] 0.023 | [15] 0.007 | [16] 0.017 | [17] 0.039 | [18] -0.006 | [19] 0.016 | [20] -0.006

BCCIP (UniProt Q9P287)
inactive: [1] 0.004 | [2] 0.005 | [3] 0.097 | [4] 0.027 | [5] 0.013 | [6] -0.048 | [7] -0.058 | [8] -0.036 | [9] -0.019 | [10] 0.009 | [11] 0.003 | [12] -0.002 | [13] 0.031 | [14] 0.039 | [15] 0.006 | [16] 0.115 | [17] -0.001 | [18] -0.009 | [19] -0.004 | [20] 0.019

BAG2 (UniProt O95816)
inactive: [1] 0.003 | [2] 0.017 | [3] 0.029 | [4] 0.067 | [5] 0.035 | [6] -0.022 | [7] 0 | [8] 0 | [9] -0.017 | [10] -0.008 | [11] 0.006 | [12] 0.005 | [13] 0.037 | [14] 0.022 | [15] 0.052 | [16] -0.021 | [17] 0.013 | [18] -0.011 | [19] -0.001 | [20] 0.028
